Test results published in the supplement of paper PMC12873370.
Several values for one entry are separate records, joined by “and”; a condition that tells them apart may be missing. Equal entries are not always repeated. The list shows a part of the results. Most values come without repeats; read them as rough.

Key:
[1] = test system: MEPP (mouse ovarian epithelium Trp53/Pten KO); assay: cell viability relative to untreated (fraction); higher = less growth inhibition; conditions: 5 µM; 3 days
[2] = test system: PREPP (mouse prostate epithelium Trp53/Pten KO); assay: as above; conditions: 5 µM; 3 days

SMILES	cell viability [1]	cell viability [2]
NC(=O)c1cc[n+](CC2=C(C(=O)[O-])N3C(=O)[C@@H](NC(=O)[C@@H](c4ccccc4)S(=O)(=O)O)[C@H]3SC2)cc1	0.965	0.981
CCCCCCCCN=c1ccn(CCCCCCCCCCn2ccc(=NCCCCCCCC)cc2)cc1	0.768	0.523
CCC/C=C1\OC(=O)C2=C1CCC1C3C=C4C(=O)O/C(=C\CCC)C4(CC3)C21 (stereo not drawn)	0.933	0.902
CC(C)[C@H](N)C(=O)O	0.908	1.03
CO[C@@]1(NC(=O)Cc2cccs2)C(=O)N2C(C(=O)O)=C(COC(N)=O)CS[C@@H]21	1.07	0.937
O=C(O)c1cc(O)c2c(c1)[C@@H]([C@H]1c3cc(C(=O)O)cc(O)c3C(=O)c3c(O[C@@H]4O[C@H](CO)[C@@H](O)[C@H](O)[C@H]4O)cccc31)c1cccc(O[C@@H]3O[C@H](CO)[C@@H](O)[C@H](O)[C@H]3O)c1C2=O	1.09	1.04
CCC(C)(C)C(=O)O[C@H]1C[C@@H](C)C=C2C=C[C@H](C)[C@H](CC[C@@H]3C[C@@H](O)CC(=O)O3)[C@H]21	1	0.714
CC1=C(C(=O)O)N2C(=O)[C@@H](NC(=O)[C@H](N)c3ccccc3)[C@H]2SC1	1.41	0.977
CN(C)c1ccc(O)c2c1C[C@H]1C[C@H]3[C@H](N(C)C)C(O)=C(C(N)=O)C(=O)[C@@]3(O)C(O)=C1C2=O	0.853	1.05
Cc1c(S(=O)(=O)O)oc2c1C(=O)C(=O)c1c-2ccc2c1CCCC2(C)C	1	0.738
CC1=C(/C=C/C(C)=C/C=C/C(C)=C/C(=O)Nc2ccc(O)cc2)C(C)(C)CCC1	1.01	0.814
COc1cc2c(=O)c3c(O)c([C@@H]4O[C@H](CO[C@@H]5OC[C@](O)(CO)[C@H]5O)[C@@H](O)[C@H](O)[C@H]4O)c(O)cc3oc2cc1O	1.04	0.995
C=C1c2cccc(O)c2C(=O)C2=C(O)[C@]3(O)C(=O)C(C(N)=O)=C(O)[C@@H](N(C)C)[C@@H]3[C@@H](O)[C@H]12	0.958	0.972
CC(C)CCC[C@@H](C)[C@H]1CC[C@H]2[C@@H]3CC=C4C[C@@H](O)CC[C@]4(C)[C@H]3CC[C@]12C	1.19	1.01
CC(=O)[C@H]1CC[C@H]2[C@@H]3CC=C4C[C@@H](O)CC[C@]4(C)[C@H]3CC[C@]12C	1.1	0.966
Cc1ccccc1C(=O)O	1.1	0.924
OCCc1ccc(O)c(O)c1	0.982	1.01
NCCS	0.925 and 0.815	0.854 and 0.929
NC[C@@H]1O[C@H](O[C@H]2[C@@H](O)[C@H](O[C@@H]3[C@@H](O)[C@H](N)C[C@H](N)[C@H]3O[C@H]3O[C@H](CO)[C@@H](O)[C@H](O)[C@H]3N)O[C@@H]2CO)[C@H](N)[C@@H](O)[C@@H]1O	0.97	0.803
NC[C@H]1CC[C@H](C(=O)O)CC1	1.46	1.03
CO[C@H]1C[C@H](O[C@H]2[C@H](C)O[C@@H](O[C@@H]3/C(C)=C/C[C@@H]4C[C@@H](C[C@]5(C=C[C@H](C)[C@@H](C6CCCCC6)O5)O4)OC(=O)[C@@H]4C=C(C)[C@@H](O)[C@H]5OC/C(=C\C=C\[C@@H]3C)[C@]54O)C[C@@H]2OC)O[C@@H](C)[C@@H]1O	1.06	0.178
O=P(O)(O)O[C@H]1[C@H](OP(=O)(O)O)[C@@H](OP(=O)(O)O)[C@H](OP(=O)(O)O)[C@@H](OP(=O)(O)O)[C@H]1OP(=O)(O)O	1	1.07
O=c1c(O[C@@H]2O[C@H](CO)[C@@H](O)[C@H](O)[C@H]2O)c(-c2ccc(O)cc2)oc2cc(O)cc(O)c12	1.01	1.03
COc1cc2ccc(=O)oc2c(O[C@@H]2O[C@H](CO)[C@@H](O)[C@H](O)[C@H]2O)c1O	1.11	0.969
NCCCCCC(=O)O	1.05	0.936

SMILES	cell viability [1]	cell viability [2]
Cc1ccc(O)cc1	0.917	0.886
CC1=C(/C=C/C(C)=C/C=C/C(C)=C/CO)C(C)(C)CCC1	0.838	0.873
O=Cc1ccc(O)cc1	1.18	0.929
N[C@@H](Cc1ccc(O)c(Cl)c1)C(=O)O	0.882	0.876
COc1ccc(O)c(C(=O)O)c1	1.22	0.914
C[C@@H]1O[C@@H](O[C@H]2[C@H](OC(=O)[C@]34CCC(C)(C)C[C@H]3C3=CC[C@@H]5[C@@]6(C)C[C@H](O)[C@H](O[C@@H]7O[C@H](CO)[C@@H](O)[C@H](O)[C@H]7O)C(CO)(CO)[C@@H]6CC[C@@]5(C)[C@]3(C)C[C@H]4O)OC[C@H](O)[C@@H]2O)[C@H](O)[C@H](O)[C@H]1O[C@@H]1OC[C@@H](O)[C@H](O[C@@H]2OC[C@](O)(CO)[C@H]2O)[C@H]1O	0.833	0.819
O=C(O)[C@H](O)Cc1ccc(O)c(O)c1	1.27	1.19
CC1=C2C(=O)O[C@@H](c3ccoc3)[C@]2(C)CCC1	1.32	0.961
CC(C)NCC(O)c1ccc(O)c(O)c1 (stereo not drawn)	1.01 and 1.04	0.952 and 1.01
O=C1OC(CN2CCOCC2)CN1/N=C/c1ccc([N+](=O)[O-])o1 (stereo not drawn)	1.11	0.667
O=C1C[C@@H](c2ccccc2)Oc2cc(O)cc(O)c21	1.02	0.869
C[C@H](CCC(=O)NCCS(=O)(=O)O)[C@H]1CC[C@H]2[C@@H]3[C@@H](O)C[C@@H]4C[C@H](O)CC[C@]4(C)[C@H]3CC[C@]12C	0.873	0.853
CCCCCCCCCCCCC(=O)O	1.1	0.878
O=C(O[C@@H]1O[C@@H]2COC(=O)c3cc(O)c(O)c(O)c3-c3c(cc(O)c(O)c3O)C(=O)O[C@H]([C@H]1O)[C@@H]2O)c1cc(O)c(O)c(O)c1	1.12	1.09
OC[C@H]1O[C@@H](O[C@H]2[C@H](O)[C@@H](O)[C@H](O)O[C@@H]2CO)[C@H](O)[C@@H](O)[C@@H]1O	1.13	0.933
CC(C)(C)[C@H]1CC[C@H](CC2=C(O)C(=O)c3ccccc3C2=O)CC1	0.887	0.943
COC(=O)c1c2c(c3ccccc3c1O)OC(C)(C)C=C2	1.24	0.865
CS(=O)(=O)c1ccc([C@@H](O)[C@@H](CF)NC(=O)C(Cl)Cl)cc1	1.31	1.22
CC1CCC2(O)C(C)(C)C3CCC2(C)C1C3 (stereo not drawn)	0.993	0.986
COc1ccc2cc1Oc1ccc(cc1)C[C@H]1c3cc(c(OC)cc3CCN1C)Oc1c(OC)c(OC)cc3c1[C@H](C2)N(C)CC3	0.544	0.917
OC[C@H]1O[C@H](OCC2O[C@@H](O)[C@H](O)[C@@H](O)[C@@H]2O)[C@H](O)[C@@H](O)[C@H]1O (stereo partly drawn)	0.776	0.913
CC(C)C(O)C(=O)O (stereo not drawn)	1.06	1.04
C=C1CC[C@H]2O[C@]2(C)CC[C@@H]2[C@@H]1CC2(C)C	0.853	0.859
CC/C=C\CCO	0.814	0.964
O=C(O)c1cc(O)c2c(c1)[C@H]([C@H]1c3cc(C(=O)O)cc(O)c3C(=O)c3c(O[C@@H]4O[C@H](CO)[C@@H](O)[C@H](O)[C@H]4O)cccc31)c1cccc(O[C@@H]3O[C@H](CO)[C@@H](O)[C@H](O)[C@H]3O)c1C2=O	1.07	1.1

A stretch from further up:
SMILES	cell viability [1]	cell viability [2]
C=C1CC[C@H]2O[C@]2(C)CC[C@@H]2[C@@H]1CC2(C)C	0.853	0.859
CC/C=C\CCO	0.814	0.964

Looked up above.
Value for `C=C1CC[C@H]2O[C@]2(C)CC[C@@H]2[C@@H]1CC2(C)C` under cell viability [2]: 0.859
Value for `CC(C)C(O)C(=O)O` (stereo not drawn) under cell viability [2]: 1.04

Remaining list, next part:

SMILES	cell viability [1]	cell viability [2]
CO/N=C(\C(=O)N[C@@H]1C(=O)N2C(C(=O)O)=C(COC(C)=O)CS[C@H]12)c1csc(N)n1	1.01	0.842
CN(C)CC(=O)O	1.05	1.09
COc1ccc2cc([C@H](C)C(=O)O)ccc2c1	1.15	0.929
OC[C@H]1O[C@@H](OCCc2ccc(O)cc2)[C@H](O)[C@@H](O)[C@@H]1O	1.09	0.961
NC(=O)C[C@H](N)C(=O)O	0.905	0.99
O=C(CCc1ccc(O)cc1)c1c(O)cc(O)cc1O[C@@H]1OC(CO)[C@@H](O)[C@@H](O)C1O (stereo partly drawn)	1	1.41
CC(C)C[C@H](NC(=O)[C@@H](O)[C@H](N)Cc1ccccc1)C(=O)O	1.06	0.928
CCCCCCCCCCCO	0.839	0.836
O=C(O)CCCCCCC(=O)O	1.24	0.892
C[C@H](O)[C@H](O)[C@H]1CNc2nc(N)[nH]c(=O)c2N1	0.992	0.95
C[C@]12CC[C@@H]3c4ccc(O)cc4CC[C@H]3[C@@H]1C[C@@H](O)[C@@H]2O	0.96	0.894
NC(=S)c1ccncc1	1.05	0.808
O=P(O)(O)OC[C@H]1OC(O)(COP(=O)(O)O)[C@@H](O)[C@@H]1O (stereo partly drawn)	0.949	1.05
Oc1cccc(O)c1O	1.18	0.875
O=C(O)c1ccc(O)cc1O	1.5	0.92
C=C(C)[C@@H]1CC[C@]2(C(=O)O)CC[C@]3(C)[C@H](CC[C@@H]4[C@@]5(C)CCC(=O)C(C)(C)[C@@H]5CC[C@]43C)[C@@H]12	1.16	0.909
C[C@]12CCC(=O)C=C1CC[C@@H]1[C@@H]2[C@@H](O)C[C@@]2(C)[C@H]1CC[C@]2(O)C(=O)CO	0.863	0.805
COc1ccc(-c2cc(=O)c3c(O)cc(O)cc3o2)cc1O	0.652	0.741
O=[N+]([O-])c1ccc(O)cc1	1.07	0.877
CCCCC[C@H](O)/C=C/[C@H]1[C@H](O)CC(=O)[C@@H]1C/C=C\CCCC(=O)O	0.759	0.827
Oc1ccc2c(c1)OC[C@]1(O)Cc3cc(O)c(O)cc3[C@H]21	1.22	0.831
CNC[C@H](O)c1cccc(O)c1	1.05	0.991
CC(C)CCC[C@@H](C)[C@H]1CC[C@H]2[C@@H]3CCC4=CC(=NO)CC[C@]4(C)[C@H]3CC[C@]12C	1.05	0.852
C[C@H](CCC(=O)O)[C@H]1CC[C@H]2[C@@H]3C[C@H](O)[C@@H]4C[C@H](O)CC[C@]4(C)[C@H]3CC[C@]12C	0.956	0.93
